# Experimental data from publication PMC13261364 (International journal of biological macromolecules, 2025).
# Protein sequences, listed by entry. Tags and fused reporters are not part of them.
# UniProt Q9HT34, entry or part of it: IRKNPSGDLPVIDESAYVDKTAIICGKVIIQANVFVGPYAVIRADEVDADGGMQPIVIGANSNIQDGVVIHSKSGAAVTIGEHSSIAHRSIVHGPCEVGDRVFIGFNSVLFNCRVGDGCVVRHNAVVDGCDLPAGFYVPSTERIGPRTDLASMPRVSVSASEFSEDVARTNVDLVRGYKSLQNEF
# “And” between values parts separate entries of the source, which are not always exact repeats. Identical values can stand only once. Like-named read-outs stand apart in the source and are kept apart here.
# Tests used:
# PaCAγ1 = PaCAγ1 (Pseudomonas aeruginosa, UniProt Q9HT34); assay: biochemical
# psCA1 = settings: read-out: KI psCA1; 20 °C, 10 mM Tris buffer, 20 mM NaClO4 pH 8.3; ref [52]; cited from earlier work
# [1] = Stopped-Flow assay, mean from 3 different assays, read-out: KI PaCAγ1
Compound,"Ki (PaCAγ1; KI (nM, AAZ) PaCAγ1, 20 °C, 20 mM TRIS pH 7.4, 10 mM NaClO4)",Ki (PaCAγ1; [1]),Ki (psCA1)
"CC(=O)Nc1nnc(S(N)(=O)=O)s1 [AAZ, acetazolamide]",47.2 ± 2.17 nM,47.2 ± 2.17 nM,37 nM
CCN[C@H]1C[C@H](C)S(=O)(=O)c2sc(S(N)(=O)=O)cc21 [DZA],–,< 1000 nM and 169 nM,–
